Experimental data from patent EP1222265B1, “NOVEL NICOTINIC ACETYLCHOLINE RECEPTOR SUBUNIT, ITS ISOLATION AND USE” (Sanofi-Aventis, priority 1999, dated 2001).
For at least one compound, name, drawing or mass did not settle the structure.

The chains behind the UniProt entries cited, without tags or fusion partners. Residues count along the entry.
UniProt Q9GZZ6, 25-450: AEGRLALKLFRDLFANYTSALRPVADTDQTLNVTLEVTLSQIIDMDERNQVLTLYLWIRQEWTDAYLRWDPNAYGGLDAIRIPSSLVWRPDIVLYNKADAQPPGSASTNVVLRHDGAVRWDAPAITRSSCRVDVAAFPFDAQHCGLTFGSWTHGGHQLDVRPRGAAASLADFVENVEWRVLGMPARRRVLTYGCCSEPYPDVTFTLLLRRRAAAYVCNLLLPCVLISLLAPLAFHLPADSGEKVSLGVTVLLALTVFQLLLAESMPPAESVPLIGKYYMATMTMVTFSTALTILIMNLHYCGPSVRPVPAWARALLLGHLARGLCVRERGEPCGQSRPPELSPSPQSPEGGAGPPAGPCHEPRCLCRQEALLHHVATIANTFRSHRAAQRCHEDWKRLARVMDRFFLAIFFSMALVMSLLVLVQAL
UniProt P30926, 22-498: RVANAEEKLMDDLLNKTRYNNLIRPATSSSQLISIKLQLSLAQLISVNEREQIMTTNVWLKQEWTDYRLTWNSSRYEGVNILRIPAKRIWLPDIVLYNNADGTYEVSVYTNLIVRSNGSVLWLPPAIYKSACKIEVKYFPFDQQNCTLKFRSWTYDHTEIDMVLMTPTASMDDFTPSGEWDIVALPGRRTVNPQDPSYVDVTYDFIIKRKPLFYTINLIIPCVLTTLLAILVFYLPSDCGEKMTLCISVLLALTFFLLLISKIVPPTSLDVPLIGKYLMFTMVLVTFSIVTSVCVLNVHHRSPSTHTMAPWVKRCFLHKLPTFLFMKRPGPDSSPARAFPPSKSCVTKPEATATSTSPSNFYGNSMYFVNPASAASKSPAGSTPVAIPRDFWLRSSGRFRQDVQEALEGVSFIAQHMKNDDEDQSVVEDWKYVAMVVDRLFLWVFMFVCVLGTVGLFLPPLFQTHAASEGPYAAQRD
UniProt Q9UGM1, 23-479: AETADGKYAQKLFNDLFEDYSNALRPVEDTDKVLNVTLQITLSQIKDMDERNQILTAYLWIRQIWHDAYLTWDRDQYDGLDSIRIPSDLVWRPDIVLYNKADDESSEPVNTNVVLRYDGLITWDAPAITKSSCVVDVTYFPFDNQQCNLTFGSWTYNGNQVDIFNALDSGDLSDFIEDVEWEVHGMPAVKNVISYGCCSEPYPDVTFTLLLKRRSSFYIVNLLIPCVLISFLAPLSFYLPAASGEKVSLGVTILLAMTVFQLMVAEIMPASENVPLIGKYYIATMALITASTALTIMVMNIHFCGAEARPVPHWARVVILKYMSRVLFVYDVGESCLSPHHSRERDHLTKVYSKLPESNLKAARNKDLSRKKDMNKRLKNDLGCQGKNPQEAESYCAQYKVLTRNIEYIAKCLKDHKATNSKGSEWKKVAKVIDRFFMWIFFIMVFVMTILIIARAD
UniProt P17787, 26-502: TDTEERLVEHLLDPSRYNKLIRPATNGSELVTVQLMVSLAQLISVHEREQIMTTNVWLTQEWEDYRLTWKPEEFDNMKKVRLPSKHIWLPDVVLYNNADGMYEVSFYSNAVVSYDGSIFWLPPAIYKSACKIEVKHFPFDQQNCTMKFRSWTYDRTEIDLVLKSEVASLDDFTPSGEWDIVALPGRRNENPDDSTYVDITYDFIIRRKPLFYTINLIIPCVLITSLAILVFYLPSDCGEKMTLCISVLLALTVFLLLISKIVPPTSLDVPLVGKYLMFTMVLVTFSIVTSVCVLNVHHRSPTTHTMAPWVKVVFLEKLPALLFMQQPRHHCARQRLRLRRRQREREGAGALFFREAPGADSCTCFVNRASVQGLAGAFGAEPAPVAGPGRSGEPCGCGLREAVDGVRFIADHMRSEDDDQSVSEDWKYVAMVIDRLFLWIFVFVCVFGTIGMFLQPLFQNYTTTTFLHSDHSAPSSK

How the values were obtained:
Assay type in all cases: cell-based
HNARA10 = target: T1, HNARA10 (Homo sapiens, UniProt Q9GZZ6); experiment: Currents in Xenopus oocytes injected with HNARA10 cDNA alone; settings: ACh concentrations up to 1 mM; HNARA10 subunit alone
T1 construct: expressed in transfected cells; host or cells: Xenopus laevis oocytes (nuclear injection of cDNA)

HNARA10 and human β4 = target: T2, HNARA10 and human β4 (Homo sapiens, UniProt P30926+Q9GZZ6); experiment: Currents in oocytes co-injected with HNARA10 and human β4 subunit cDNAs
T2 construct: expressed in transfected cells; host or cells: Xenopus laevis oocytes (cDNA co-injection)

[1] = target: T3, Heteromeric α9-HNARA10 receptors (Homo sapiens, UniProt Q9GZZ6+Q9UGM1); experiment: ACh-evoked currents in Xenopus laevis oocytes injected with human α9 and HNARA10 cDNAs
T3 construct: expressed in transfected cells; host or cells: Xenopus laevis oocytes (nuclear injection of cDNA)

HNARA10 and human β2 = target: T4, HNARA10 and human β2 (Homo sapiens, UniProt P17787+Q9GZZ6); experiment: Currents in oocytes co-injected with HNARA10 and human β2 subunit cDNAs
T4 construct: expressed in transfected cells; host or cells: Xenopus laevis oocytes (cDNA co-injection)

How did the evoked currents (HNARA10) turn out when `CC(=O)OCC[N+](C)(C)C` [ACh, acetylcholine] was run?
The evoked currents was “elicited no currents”.

And the evoked currents (HNARA10 and human β4)?
The evoked currents was “no ACh-evoked currents”.

And the evoked currents [1]?
Its evoked currents is “robust ACh-evoked currents”.

What about the “increase in the response to the agonist when HNARA10 was present” value [1] of the same compound?
The value was “about a hundred fold”.

What about the evoked currents (HNARA10 and human β2) of the same compound?
The evoked currents was “no ACh-evoked currents”.
